Measurements reported in patent publication US20250283871A1, “COMPOSITIONS AND METHODS FOR MODULATING THE INTERACTION BETWEEN SS18-SSX FUSION ONCOPROTEIN AND NUCLEOSOMES” (Dana-Farber Cancer Institute, Inc., priority 2020, published 2025).

System: BAF complex subunits and histone proteins
Test: Mass spectrometry proteomics of purified HA-SS18 WT and HA-SS18-SSX1 complexes (Tables 5A-5E)
Design: species or system human
Conditions: for Total / Unique: HA-SS18SSX1_CHR_peptides; for Total: total peptides of the identified protein; for Unique: unique peptides of the identified protein; for Total (peptides) / Unique (peptides) / Total (total peptides) / Unique (unique peptides): HEK-293T
[1] = HA-SS18WT_CHR_peptides: HA-SS18 WT purification from nuclease-treated solubilized chromatin (CHR), label = protein identified
[2] = HA-SS18WT_CHR_peptides: protein identified in HA-SS18 WT BAF complex purification from nuclease-treated solubilized chromatin (CHR)
[3] = HA-SS18SSX1_CHR_peptides: protein identified in the HA-SS18-SSX1 purification from solubilized chromatin (CHR)
[4] = HA-SS18SSX1 purification, NE (soluble nuclear extract) fraction, peptides per identified protein
[5] = HA-SS18WT_NE_peptides: HA-SS18 WT complexes purified from nuclear extract (NE), label = protein identified (Gene Symbol)
[6] = HA-SS18WT_NE_peptides: proteins co-purified with HA-SS18 WT from nuclear extract (NE)

Row | Molecule | Total | Unique | Total (peptides) [1] | Unique (peptides) [1] | further results
1 | SLU7 (protein, UniProt O95391 2-586, looked up) Pre-mRNA-splicing factor SLU7: SATVVDAVNAAPLSGSKEMSLEEPKKMTREDWRKKKELEEQRKLGNAPAEVDEEGKDINPHIPQYISSVPWYIDPSKRPTLKHQRPQPEKQKQFSSSGEWYKRGVKENSIITKYRKGACENCGAMTHKKKDCFERPRRVGAKFTGTNIAPDEHVQPQLMFDYDGKRDRWNGYNPEEHMKIVEEYAKVDLAKRTLKAQKLQEELASGKLVEQANSPKHQWGEEEPNSQMEKDHNSEDEDEDKYADDIDMPGQNFDSKRRITVRNLRIREDIAKYLRNLDPNSAYYDPKTRAMRENPYANAGKNPDEVSYAGDNFVRYTGDTISMAQTQLFAWEAYDKGSEVHLQADPTKLELLYKSFKVKKEDFKEQQKESILEKYGGQEHLDAPPAELLLAQTEDYVEYSRHGTVIKGQERAVACSKYEEDVKIHNHTHIWGSYWKEGRWGYKCCHSFFKYSYCTGEAGKEIVNSEECIINEITGEESVKKPQTLMELHQEKLKEEKKKKKKKKKKHRKSSSDSDDEEKKHEKLKKALNAEEARLLHVKETMQIDERKRPYNSMYETREPTEEEMEAYRMKRQRPDDPMASFLGQ | 1 | 1 | – | – | –
2 | NOP16 (protein, UniProt Q9Y3C1 1-178, looked up) Nucleolar protein 16: MPKAKGKTRRQKFGYSVNRKRLNRNARRKAAPRIECSHIRHAWDHAKSVRQNLAEMGLAVDPNRAVPLRKRKVKAMEVDIEERPKELVRKPYVLNDLEAEASLPEKKGNTLSRDLIDYVRYMVENHGEDYKAMARDEKNYYQDTPKQIRSKINVYKRFYPAEWQDFLDSLQKRKMEVE | 1 | 1 | 3 | 3 | –
3 | NVL (protein, UniProt O15381 1-856, looked up) Nuclear valosin-containing …: MKPRPAGFVDNKLKQRVIQYLTSNKCGKYVDIGVLASDLQRVYSIDYGRRKRNAFRIQVEKVFSIISSEKELKNLTELEDEHLAKRARQGEEDNEYTESYSDDDSSMEDYPDPQSANHMNSSLLSLYRKGNPDSVSNTPEMEQRETTSSTPRISSKTGSIPLKTPAKDSEGGWFIDKTPSVKKDSFFLDLSCEKSNPKKPITEIQDSKDSSLLESDMKRKGKLKNKGSKRKKEDLQEVDGEIEAVLQKKAKARGLEFQISNVKFEDVGGNDMTLKEVCKMLIHMRHPEVYHHLGVVPPRGVLLHGPPGCGKTLLAHAIAGELDLPILKVAAPEIVSGVSGESEQKLRELFEQAVSNAPCIIFIDEIDAITPKREVASKDMERRIVAQLLTCMDDLNNVAATARVLVIGATNRPDSLDPALRRAGRFDREICLGIPDEASRERILQTLCRKLRLPQAFDFCHLAHLTPGFVGADLMALCREAAMCAVNRVLMKLQEQQKKNPEMEDLPSKGVQEERLGTEPTSETQDELQRLLGLLRDQDPLSEEQMQGLCIELNDFIVALSSVQPSAKREGFVTVPNVTWADIGALEDIREELTMAILAPVRNPDQFKALGLVTPAGVLLAGPPGCGKTLLAKAVANESGLNFISVKGPELLNMYVGESERAVRQVFQRAKNSAPCVIFFDEVDALCPRRSDRETGASVRVVNQLLTEMDGLEARQQVFIMAATNRPDIIDPAILRPGRLDKTLFVGLPPPADRLAILKTITKNGTKPPLDADVNLEAIAGDLRCDCYTGADLSALVREASICALRQEMARQKSGNEKGELKVSHKHFEEAFKKVRSSISKKDQIMYERLQESLSR | 1 | 1 | – | – | Total (total peptides) [2]: 1; Unique (unique peptides) [2]: 1
4 | ZCCHC10 (protein, UniProt Q8TBK6 1-192, looked up) Zinc finger CCHC …: MATPMHRLIARRQAFDTELQPVKTFWILIQPSIVISEANKQHVRCQKCLEFGHWTYECTGKRKYLHRPSRTAELKKALKEKENRLLLQQSIGETNVERKAKKKRSKSVTSSSSSSSDSSASDSSSESEETSTSSSSEDSDTDESSSSSSSSASSTTSSSSSDSDSDSSSSSSSSTSTDSSSDDEPPKKKKKK | 1 | 1 | – | – | –
5 | NOP58 (protein, UniProt Q9Y2X3 1-529, looked up) Nucleolar protein 58: MLVLFETSVGYAIFKVLNEKKLQEVDSLWKEFETPEKANKIVKLKHFEKFQDTAEALAAFTALMEGKINKQLKKVLKKIVKEAHEPLAVADAKLGGVIKEKLNLSCIHSPVVNELMRGIRSQMDGLIPGVEPREMAAMCLGLAHSLSRYRLKFSADKVDTMIVQAISLLDDLDKELNNYIMRCREWYGWHFPELGKIISDNLTYCKCLQKVGDRKNYASAKLSELLPEEVEAEVKAAAEISMGTEVSEEDICNILHLCTQVIEISEYRTQLYEYLQNRMMAIAPNVTVMVGELVGARLIAHAGSLLNLAKHAASTVQILGAEKALFRALKSRRDTPKYGLIYHASLVGQTSPKHKGKISRMLAAKTVLAIRYDAFGEDSSSAMGVENRAKLEARLRTLEDRGIRKISGTGKALAKTEKYEHKSEVKTYDPSGDSTLPTCSKKRKIEQVDKEDEITEKKAKKAKIKVKVEEEEEEKVAEEEETSVKKKKKRGKKKHIKEEPLSEEEPCTSTAIASPEKKKKKKKKRENED | – | – | 24 | 14 | Total (total peptides) [3]: 26; Unique (unique peptides) [3]: 19; Total (total peptides) [4]: 11; Unique (unique peptides) [4]: 10; Total (peptides) [5]: 7; Unique (peptides) [5]: 7
6 | NUP62 (protein) SGFNFGGTGAPTGGFTFGTAKTATTTPATGFSFSTSGTGGFNFGAPFQPATSTPSTGLFSLATQTPATQTTGFTFGTATLASGGTGFSLGIGASKLNLSNTAATPAMANPSGFGLGSSNLTNAISSTVTSSQGTAPTGFVFGPSTTSVAPATTSGGFSFTGGSTAQPSGFNIGSAGNSAQPTAPATLPFTPATPAATTAGATQPAAPTPTATITSTGPSLFASIATAPTSSATTGLSLCTPVTTAGAPTAGTQGFSLKAPGAASGTSTTTSTAATATATTTSSSSTTGFALNLKPLAPAGIPSNTAAAVTAPPGPGAAAGAAASSAMTYAQLESLINKWSLELEDQERHFLQQATQVNAWDRTLIENGEKITSLHREVEKVKLDQKRLDQELDFILSQQKELEDLLSPLEELVKEQSGTIYLQHADEEREKTYKLAENIDAQLKRMAQDLKDIIEHLNTSGAPADTSDPLQQICKILNAHMDSLQWIDQNSALLQRKVEEVTKVCEGRRKEQERSFRITFD | 1 | 1 | – | – | Total (peptides) [6]: 1; Unique (peptides) [6]: 1
